PubChem BioAssay AID1224830 – NIAID – 2016
This is a random part of about 18,000 deposited reagents. In the full data, about 2,900 (16%) were called active. 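Calls are made per well; low scores hint the gene aids the LPS response, high scores that it dampens it.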 Unmarked entries are inactive. Repeated entries: four replicate wells of each siRNA pool.

- Aim: 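Host factors that control LPS-induced TNF expression in human macrophages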 (primary screen)
- System: human THP-1 monocytic leukaemia cells, TNF dual-luciferase reporter clone, PMA-differentiated to macrophage-like cells
- Reagent: siRNA pool against human genes, 50 nM
- Duration: LPS for 4 h, given about 3 days after siRNA transfection
- Treatment: bacterial LPS (TLR4 ligand), 10 ng/ml
- Measured: 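Ratio of firefly to renilla light, scaled to the plate median and expressed as a robust z-score per replicate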
- Reading the numbers: TNF reporter robust z-score: higher = stronger TNF reporter response to LPS
- Rule for the call: 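a well is active when its z-score exceeds 2.8 or falls below -1.5; control wells carry no call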

target	TNF reporter robust z-score
SGPL1	-1.18
SGPL1	-0.66
SGPL1	-1.4
SGPL1	-1.04
HSPA12B	0.45
HSPA12B	0.58
HSPA12B	-0.67
HSPA12B	1.1
CDY1	-0.45
CDY1	-0.59
CDY1	-0.71
CDY1	0.28
FRMPD4	1.17
FRMPD4	1.68
FRMPD4	1.05
FRMPD4	0.54
PROM2	-0.89
PROM2	-0.72
PROM2	-0.27
PROM2	-0.61
RGPD5	0.26
RGPD5	-0.41
RGPD5	0.19
RGPD5	0.5
INHBE	-0.32
INHBE	-0.44
INHBE	-0.57
INHBE	0.18
SEMG2	-0.21
SEMG2	-0.09
SEMG2	-0.05
SEMG2	0.43
POPDC2	1.86
POPDC2	0.51
POPDC2	0.04
POPDC2	-0.22
IRF5	-0.86
IRF5	-0.22
IRF5	-0.6
IRF5	-0.19
SMAGP	-0.51
SMAGP	-0.79
SMAGP	-1.56 (active)
SMAGP	-0.53
SLC50A1	-0.43
SLC50A1	0.79
SLC50A1	0.84
SLC50A1	-0.48
LRRC8E	1.09
LRRC8E	1.29
LRRC8E	0.31
LRRC8E	0.46
PPA2	0.26
PPA2	-0.75
PPA2	0.08
PPA2	1.8
ADAM18	0.64
ADAM18	0.11
ADAM18	-0.25
ADAM18	-0.23
UTP23	-0.6
UTP23	-1.01
UTP23	-1.16
TLE6	-1.25
TLE6	-0.26
TLE6	0.42
TLE6	0.08
B4GALNT3	-0.84
B4GALNT3	1.33
B4GALNT3	-0.58
B4GALNT3	0.32
MORN3	1.49
MORN3	1.45
MORN3	0.79
MORN3	-0.02
ORM1	0.76
ORM1	1.13
ORM1	0.17
ORM1	1.16
PTPN9	0.04
PTPN9	1.28
PTPN9	0.76
PTPN9	0.89
WDR55	-1.19
WDR55	-0.52
WDR55	-0.41
WDR55	-0.51
AIRE	-0.18
AIRE	-1.22
AIRE	-1.19
AIRE	-1.89 (active)
CHRM4	1.42
CHRM4	0.21
CHRM4	0.45
CHRM4	0.48
GSK3A	-1.6 (active)
GSK3A	-1.65 (active)
GSK3A	-0.09
GSK3A	-0.43
CPLANE2	-0.4
CPLANE2	0.55
CPLANE2	1
CPLANE2	1.05
CLDN8	2.3
CLDN8	1.41
CLDN8	2.95 (active)
CLDN8	0.94
GPATCH2	-0.88
GPATCH2	-0.24
GPATCH2	-0.44
GPATCH2	-0.38
CRY1	-0.23
CRY1	0.08
CRY1	-0.64
CRY1	0.32
ATP5IF1	-0.35
ATP5IF1	0.49
ATP5IF1	-0.27
ATP5IF1	-0.07
LIMD2	0.3
LIMD2	0.79
LIMD2	-0.31
DHX8	0.74
DHX8	1.42
DHX8	1.35
DHX8	0.26
COQ10B	1.54
COQ10B	0.93
COQ10B	0.73
COQ10B	1.66
SERINC3	0.95
SERINC3	0.93
SERINC3	0.23
SERINC3	1.05
BPHL	-0.39
BPHL	0.17
BPHL	-0.7
BPHL	0.56
SINHCAF	0.01
SINHCAF	-0.06
SINHCAF	-0.69
SINHCAF	-0.87
